Results are given in words; binding and its absence hold for the method and conditions named. For some of these results: Binding seen in cells or lysates may run through a third protein. Some results given as binding are weak or reduced against the parent protein; the word gives no strength.
T1: HNRNPM (human (endogenous in HEK293T)) (UniProt P52272)
T1 sequence: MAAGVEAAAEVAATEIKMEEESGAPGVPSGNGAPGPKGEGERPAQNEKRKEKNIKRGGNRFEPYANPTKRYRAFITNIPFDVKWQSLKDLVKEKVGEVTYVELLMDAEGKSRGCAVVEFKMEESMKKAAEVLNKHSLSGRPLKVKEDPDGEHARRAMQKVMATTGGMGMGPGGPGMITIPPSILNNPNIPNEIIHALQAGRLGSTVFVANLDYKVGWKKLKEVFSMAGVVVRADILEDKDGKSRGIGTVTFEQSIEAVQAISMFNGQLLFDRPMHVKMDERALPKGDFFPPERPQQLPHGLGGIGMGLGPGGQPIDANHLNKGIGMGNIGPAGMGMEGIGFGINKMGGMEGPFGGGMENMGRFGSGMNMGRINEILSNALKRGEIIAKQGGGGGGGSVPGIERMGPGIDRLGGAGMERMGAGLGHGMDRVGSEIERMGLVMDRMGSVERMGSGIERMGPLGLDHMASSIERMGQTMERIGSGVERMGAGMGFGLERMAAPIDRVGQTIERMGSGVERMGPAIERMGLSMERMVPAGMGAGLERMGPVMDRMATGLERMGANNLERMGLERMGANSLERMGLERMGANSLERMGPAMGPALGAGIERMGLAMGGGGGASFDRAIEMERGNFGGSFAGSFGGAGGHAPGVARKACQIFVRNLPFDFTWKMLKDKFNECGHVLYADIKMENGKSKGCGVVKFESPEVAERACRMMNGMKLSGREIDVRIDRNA

The chains behind the UniProt entries cited, without tags or fusion partners.
UniProt P07910: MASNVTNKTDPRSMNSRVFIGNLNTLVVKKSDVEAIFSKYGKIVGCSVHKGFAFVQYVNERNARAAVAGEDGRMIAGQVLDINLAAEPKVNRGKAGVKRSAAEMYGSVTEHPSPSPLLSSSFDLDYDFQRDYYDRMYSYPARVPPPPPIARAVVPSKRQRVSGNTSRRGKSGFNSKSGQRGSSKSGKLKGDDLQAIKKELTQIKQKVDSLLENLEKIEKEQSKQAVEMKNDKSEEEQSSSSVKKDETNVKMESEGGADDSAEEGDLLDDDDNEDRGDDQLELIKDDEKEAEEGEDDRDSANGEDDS


Legend:
[1] = target: HNRNPC (human (endogenous in HEK293T, HepG2, A431)) (UniProt P07910); experiment: co-IP
[2] = target: T1, HNRNPM (human (endogenous in HEK293T)); experiment: co-IP
[3] = target: HNRNPC (human (endogenous in HEK293T, HepG2, A431)) (UniProt P07910); experiment: sequential immunoprecipitation irCLIP

Row | binding [1] | binding [2] | binding [3] | Binder
1 | binds | binds |  | ILF3 (protein, UniProt Q12906 1-894) MRPMRIFVNDDRHVMAKHSSVYPTQEELEAVQNMVSHTERALKAVSDWIDEQEKGSSEQAESDNMDVPPEDDSKEGAGEQKTEHMTRTLRGVMRVGLVAKGLLLKGDLDLELVLLCKEKPTTALLDKVADNLAIQLAAVTEDKYEILQSVDDAAIVIKNTKEPPLSLTIHLTSPVVREEMEKVLAGETLSVNDPPDVLDRQKCLAALASLRHAKWFQARANGLKSCVIVIRVLRDLCTRVPTWGPLRGWPLELLCEKSIGTANRPMGAGEALRRVLECLASGIVMPDGSGIYDPCEKEATDAIGHLDRQQREDITQSAQHALRLAAFGQLHKVLGMDPLPSKMPKKPKNENPVDYTVQIPPSTTYAITPMKRPMEEDGEEKSPSKKKKKIQKKEEKAEPPQAMNALMRLNQLKPGLQYKLVSQTGPVHAPIFTMSVEVDGNSFEASGPSKKTAKLHVAVKVLQDMGLPTGAEGRDSSKGEDSAEETEAKPAVVAPAPVVEAVSTPSAAFPSDATAEQGPILTKHGKNPVMELNEKRRGLKYELISETGGSHDKRFVMEVEVDGQKFQGAGSNKKVAKAYAALAALEKLFPDTPLALDANKKKRAPVPVRGGPKFAAKPHNPGFGMGGPMHNEVPPPPNLRGRGRGGSIRGRGRGRGFGGANHGGYMNAGAGYGSYGYGGNSATAGYSQFYSNGGHSGNASGGGGGGGGGSSGYGSYYQGDNYNSPVPPKHAGKKQPHGGQQKPSYGSGYQSHQGQQQSYNQSPYSNYGPPQGKQKGYNHGQGSYSYSNSYNSPGGGGGSDYNYESKFNYSGSGGRSGGNSYGSGGASYNPGSHGGYGGGSGGGSSYQGKQGGYSQSNYNSPGSGQNYSGPPSSYQSSQGGYGRNADHSMNYQYR
2 | binds |  | binds | HNRNPM (protein, UniProt P52272 1-730) MAAGVEAAAEVAATEIKMEEESGAPGVPSGNGAPGPKGEGERPAQNEKRKEKNIKRGGNRFEPYANPTKRYRAFITNIPFDVKWQSLKDLVKEKVGEVTYVELLMDAEGKSRGCAVVEFKMEESMKKAAEVLNKHSLSGRPLKVKEDPDGEHARRAMQKVMATTGGMGMGPGGPGMITIPPSILNNPNIPNEIIHALQAGRLGSTVFVANLDYKVGWKKLKEVFSMAGVVVRADILEDKDGKSRGIGTVTFEQSIEAVQAISMFNGQLLFDRPMHVKMDERALPKGDFFPPERPQQLPHGLGGIGMGLGPGGQPIDANHLNKGIGMGNIGPAGMGMEGIGFGINKMGGMEGPFGGGMENMGRFGSGMNMGRINEILSNALKRGEIIAKQGGGGGGGSVPGIERMGPGIDRLGGAGMERMGAGLGHGMDRVGSEIERMGLVMDRMGSVERMGSGIERMGPLGLDHMASSIERMGQTMERIGSGVERMGAGMGFGLERMAAPIDRVGQTIERMGSGVERMGPAIERMGLSMERMVPAGMGAGLERMGPVMDRMATGLERMGANNLERMGLERMGANSLERMGLERMGANSLERMGPAMGPALGAGIERMGLAMGGGGGASFDRAIEMERGNFGGSFAGSFGGAGGHAPGVARKACQIFVRNLPFDFTWKMLKDKFNECGHVLYADIKMENGKSKGCGVVKFESPEVAERACRMMNGMKLSGREIDVRIDRNA

Source: article doi:10.1101/2024.09.27.615518
